# Experimental data reported in US8470856B2, “Anthranilamide compounds, process for their production and pesticides containing them” (Ishihara Sangyo Kaisha, Ltd., priority 2004, dated 2013).
# Some results were stated once for a whole list of compounds, not compound by compound.
# What was measured:
# Type in all cases: in vivo
# [1] = system: Common Cutworm (Spodoptera litura); test: Controlling effects against common cutworm, cabbage leaf dip; conditions: second-third instar larvae, 5 days after release
# From the text: Test on Controlling Effects Against Common Cutworm (Spodoptera litura)
# A leaf segment of cabbage was dipped for about 10 seconds in an insecticidal solution prepared to bring the concentration of the compound of the present invention to 50 ppm or 3.1 ppm and dried in air. A wet filter paper was laid in a petri dish having a diameter of 9 cm, and the dried leaf segment of cabbage was placed thereon. Ten second-third instar larvae common cutworm were released therein and after putting a cover, left in a constant temperature chamber at 25° C. with lightening. Dead larvae were counted 5 days after the release, and the mortality was calculated by the following equation. Here, moribund insects were counted as dead insects. […] Mortality(%)=(number of dead insects/number of released insects)×100
# [2] = system: Thrips palmi; test: Controlling effects against Thrips palmi, cucumber leaf dip; conditions: 50 ppm, first instar larvae, 12 to 15 days after treatment
# [3] = system: Common Cutworm (Spodoptera litura); test: Systemic effects against common cutworm, application to foot of cabbage; conditions: leaf cut ten days after treatment, 4 to 5 days after release
# [4] = system: Silverleaf Whitefly (Bemisia argentifoli); test: Controlling effects against silverleaf whitefly, cucumber leaf dip; conditions: infested cucumber leaf dip, counted 10 to 14 days after treatment
# [5] = system: Green Peach Aphid (Myzus persicae); test: Controlling effects against green peach aphid, eggplant leaf dip; conditions: 800 ppm, larvae, 5 days after treatment
# [6] = system: Housefly (Musca domestica); test: Controlling effects against housefly, treated culture medium; conditions: 10 ml of 200 ppm solution mixed into 10 g culture medium, 4-day old larvae, 15 to 16 days
# [7] = system: Serpentine Leafminer (Liriomyza trifolii); test: Controlling effects against serpentine leafminer, kidney bean leaf dip; conditions: kidney bean leaf with eggs dipped, 6 to 8 days after treatment
# [8] = system: Formosan Subterranean Termite (Coptotermes formosanus); test: Controlling effects against Formosan subterranean termite, treated filter paper; conditions: 1 ml of 500 ppm solution on filter paper, workers, 6 days after treatment
# [9] = system: Twenty-eight-spotted Ladybird (Epilachna vigintioctopunctata); test: Controlling effects against twenty-eight-spotted ladybird, eggplant leaf dip; conditions: first-second instar larvae, 4 to 6 days after release
# [10] = system: Cotton Aphid (Aphis gossypii); test: Controlling effects against cotton aphid, eggplant leaf dip; conditions: 50 ppm, larvae, 5 days after treatment
# [11] = 10 ml of 200 ppm applied to foot of cabbage
SMILES,mortality ([1]; 3.1 ppm),mortality [5],percent inhibition of emergence [6],protective value ([4]; 50 ppm),mortality ([1]; 50 ppm),also measured
Cc1cc(Cl)cc(C(=O)NCC2(C)CC2(Cl)Cl)c1NC(=O)c1cc(C(F)(F)F)nn1-c1ncccc1Cl (centres unmarked) [compound 5],at least 90%,,,,,
Cc1cc(Cl)cc(C(=O)NCC2(C)CC2)c1NC(=O)c1cc(C(F)(F)F)nn1-c1ncccc1Cl [compound 10],at least 90%,,,,,
CC(NC(=O)c1cc(Cl)cc(Br)c1NC(=O)c1cc(C(F)(F)F)nn1-c1ncccc1Cl)C1CC1 (centres unmarked) [compound 11],at least 90%,at least 90%,at least 90%,,,"protective value [2]: at least 90%; mortality [3, 11]: at least 90%; protective value ([4]; 200 ppm): at least 80%; protective value ([7]; 12.5 ppm): at least 90%; mortality [8]: at least 90%; mortality ([9]; 25 ppm): at least 90%"
CC(NC(=O)c1cc(Br)cc(I)c1NC(=O)c1cc(C(F)(F)F)nn1-c1ncccc1Cl)C1CC1 (centres unmarked) [compound 12],at least 90%,,at least 90%,at least 80%,,protective value [2]: at least 90%; protective value ([7]; 12.5 ppm): at least 90%; mortality [8]: at least 90%
CC(NC(=O)c1cc(Cl)cc(Cl)c1NC(=O)c1cc(C(F)(F)F)nn1-c1ncccc1Cl)C1CC1 (centres unmarked) [compound 14],at least 90%,at least 90%,at least 90%,at least 80%,,protective value ([7]; 25 ppm): at least 90%; mortality [8]: at least 90%
CC(NC(=O)c1cc(Cl)cc(Cl)c1NC(=O)c1cc(Br)nn1-c1ncccc1Cl)C1CC1 (centres unmarked) [compound 15],at least 90%,at least 90%,at least 90%,at least 80%,,protective value ([7]; 12.5 ppm): at least 90%; mortality [8]: at least 90%
CC(NC(=O)c1cc(Cl)cc(I)c1NC(=O)c1cc(Br)nn1-c1ncccc1Cl)C1CC1 (centres unmarked) [compound 17],at least 90%,at least 90%,at least 90%,at least 80%,,protective value ([7]; 12.5 ppm): at least 90%
CC(NC(=O)c1cc(F)cc(Br)c1NC(=O)c1cc(C(F)(F)F)nn1-c1ncccc1Cl)C1CC1 (centres unmarked) [compound 18],at least 90%,at least 90%,at least 90%,at least 80%,,"mortality [3, 11]: at least 90%; protective value ([7]; 12.5 ppm): at least 90%; mortality [10]: at least 90%"
CC(NC(=O)c1cc(Cl)cc(I)c1NC(=O)c1cc(C(F)(F)F)nn1-c1ncccc1Cl)C1CC1 (centres unmarked) [compound 19],at least 90%,,at least 90%,at least 80%,,
CC(NC(=O)c1cc(F)cc(Cl)c1NC(=O)c1cc(C(F)(F)F)nn1-c1ncccc1Cl)C1CC1 (centres unmarked) [compound 20],,at least 90%,at least 90%,at least 80%,at least 90%,protective value ([7]; 12.5 ppm): at least 90%
CC(NC(=O)c1cc(I)cc(I)c1NC(=O)c1cc(C(F)(F)F)nn1-c1ncccc1Cl)C1CC1 (centres unmarked) [compound 21],,,,,at least 90%,protective value ([4]; 200 ppm): at least 80%
Cc1cc(Cl)cc(C(=O)NC(C)C2CC2)c1NC(=O)c1cc(C(F)(F)F)nn1-c1ncccc1Br (centres unmarked) [compound 23],at least 90%,at least 90%,,,,protective value ([7]; 25 ppm): at least 90%
Cc1cc(Cl)cc(C(=O)NC(C)C2CC2)c1NC(=O)c1cc(Cl)nn1-c1ncccc1C(F)(F)F (centres unmarked) [compound 24],at least 90%,,,,,
Cc1cc(Cl)cc(C(=O)NC(C)C2CC2)c1NC(=O)c1cc(Br)nn1-c1ncccc1Br (centres unmarked) [compound 25],,,,,at least 90%,
CC(NC(=O)c1cc(Cl)cc(Br)c1NC(=O)c1cc(Cl)nn1-c1ncccc1Cl)C1CC1 (centres unmarked) [compound 38],at least 90%,at least 90%,,at least 80%,,protective value [2]: at least 90%; mortality ([9]; 12.5 ppm): at least 90%
CC(NC(=O)c1cc(F)cc(Br)c1NC(=O)c1cc(Cl)nn1-c1ncccc1Cl)C1CC1 (centres unmarked) [compound 39],at least 90%,at least 90%,,at least 80%,,protective value [2]: at least 90%; mortality ([9]; 12.5 ppm): at least 90%

SMILES,mortality ([1]; 3.1 ppm),mortality [5],percent inhibition of emergence [6],protective value ([4]; 50 ppm),mortality ([1]; 50 ppm),also measured
CC(=O)c1cc(C)c(NC(=O)c2cc(C(F)(F)F)nn2-c2ncccc2Cl)c(C(=O)NC(C)C2CC2)c1 (centres unmarked) [compound 40],at least 90%,,,,,
Cc1cc(C=O)cc(C(=O)NC(C)C2CC2)c1NC(=O)c1cc(C(F)(F)F)nn1-c1ncccc1Cl (centres unmarked) [compound 41],,,,,at least 90%,
CC(NC(=O)c1cc(Cl)cc(I)c1NC(=O)c1cc(Cl)nn1-c1ncccc1Cl)C1CC1 (centres unmarked) [compound 80],at least 90%,,,,,
Cc1cc(Cl)cc(C(=O)NC(C)C2CC2)c1NC(=O)c1cc(OCC(F)(F)F)nn1-c1ncccc1Cl (centres unmarked) [compound 81],at least 90%,,,,,
CC(NC(=O)c1cc(Br)cc(I)c1NC(=O)c1cc(Cl)nn1-c1ncccc1Cl)C1CC1 (centres unmarked) [compound 90],at least 90%,at least 90%,,,,
CC(NC(=O)c1cc(Br)cc(I)c1NC(=O)c1cc(Br)nn1-c1ncccc1Cl)C1CC1 (centres unmarked) [compound 91],,,,,at least 90%,
Cc1cc(C)c(NC(=O)c2cc(C(F)(F)F)nn2-c2ncccc2Cl)c(C(=O)NC(C)C2CC2)c1 (centres unmarked) [compound 92],,,,,at least 90%,
Cc1cc(C(=O)OC(C)C)cc(C(=O)NC(C)C2CC2)c1NC(=O)c1cc(Br)nn1-c1ncccc1Cl (centres unmarked) [compound 93],,,,,at least 90%,
COC(=O)c1cc(C)c(NC(=O)c2cc(Br)nn2-c2ncccc2Cl)c(C(=O)NC(C)C2CC2)c1 (centres unmarked) [compound 96],,,,,at least 90%,
Cc1cc(Cl)cc(C(=O)NCC2CC2)c1NC(=O)c1cc(C(F)(F)F)nn1-c1ncccc1Cl [compound No. 2],at least 90%,at least 90%,,,,protective value ([7]; 12.5 ppm): at least 90%
"Cc1cc(Cl)cc(C(=O)NC(C)C2CC2)c1NC(=O)c1cc(C(F)(F)F)nn1-c1ncccc1Cl (stereo not drawn) [compound No. 3, N-[4-chloro-2-methyl-6-[[α-methyl-(cyclopropylmethyl)amino]carbonyl]-phenyl]-3-(trifluoromethyl)-1-(3-chloro-2-pyridyl)-1H-pyrazol-5-carboxamide]",at least 90%,,at least 90%,at least 80%,,"mortality [3, 11]: at least 90%; protective value ([7]; 12.5 ppm): at least 90%; mortality [8]: at least 90%; mortality ([9]; 12.5 ppm): at least 90%"
Cc1cc(Cl)cc(C(=O)NC(C)C2CC2)c1NC(=O)c1cc(Cl)nn1-c1ncccc1Cl (centres unmarked) [compound No. 8],,,,,at least 90%,mortality ([3]; 10 ml of 800 ppm applied to foot of cabbage): at least 90%
"Cc1cc(Cl)cc(C(=O)NC(C)C2CC2)c1NC(=O)c1cc(Br)nn1-c1ncccc1Cl (stereo not drawn) [compound No. 9, N-[4-chloro-2-methyl-6-[[α-methyl-(cyclopropylmethyl)amino]carbonyl]-phenyl]-3-bromo-1-(3-chloro-2-pyridyl)-1H-pyrazol-5-carboxamide]",at least 90%,at least 90%,at least 90%,at least 80%,,"mortality [3, 11]: at least 90%; protective value ([7]; 25 ppm): at least 90%; mortality [8]: at least 90%; mortality ([9]; 25 ppm): at least 90%"
CC(NC(=O)c1cc(F)cc(Br)c1NC(=O)c1cc(Br)nn1-c1ncccc1Cl)C1CC1 (centres unmarked) [compound No. 22],,at least 90%,,at least 80%,at least 90%,"protective value [2]: at least 90%; mortality [3, 11]: at least 90%; protective value ([7]; 12.5 ppm): at least 90%; mortality [10]: at least 90%; mortality [8]: at least 90%; mortality ([9]; 12.5 ppm): at least 90%"
Cc1cc(C(F)F)cc(C(=O)NC(C)C2CC2)c1NC(=O)c1cc(C(F)(F)F)nn1-c1ncccc1Cl (centres unmarked) [compound No. 42],at least 90%,at least 90%,,,,
